The campaign covered roughly 400,000 compounds. About 3,700 (0.93%) were called active. The inconclusive results got no clear call from the source; some entries with a clear call stand among them for comparison. Calls follow the shape of the dose curve; as a rule, active = well fitted inhibition curve with a large enough effect; inconclusive = small, poorly fitted or top-dose-only effect, or another doubt; inactive = no such curve, though single readings can be large or run the other way. Where the call is inconclusive, the potency comes from a doubtful curve fit.
What follows are compounds tested against Vitamin D3 receptor (Homo sapiens) (UniProt P11473) (assay: Inhibitors of the vitamin D receptor (VDR): qHTS). Details: VDR-SRC2-3 peptide fluorescence polarization, 2 h; max response, negative = inhibition: active compounds read low.
Procedure, shortened: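 Measured by FP: displacement of SRC2-3 coactivator peptide from VDR by library compounds, following a two-hour ambient incubation.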
% is scaled to controls: 0 for no effect and ±100 for the full control effect; potency is read from the fitted curve at half-maximal effect.

Chains of the proteins cited; added tags and fusions are not shown. Lines headed by an entry give the natural chain unless they say otherwise; changes in a name come on top.
UniProt P11473: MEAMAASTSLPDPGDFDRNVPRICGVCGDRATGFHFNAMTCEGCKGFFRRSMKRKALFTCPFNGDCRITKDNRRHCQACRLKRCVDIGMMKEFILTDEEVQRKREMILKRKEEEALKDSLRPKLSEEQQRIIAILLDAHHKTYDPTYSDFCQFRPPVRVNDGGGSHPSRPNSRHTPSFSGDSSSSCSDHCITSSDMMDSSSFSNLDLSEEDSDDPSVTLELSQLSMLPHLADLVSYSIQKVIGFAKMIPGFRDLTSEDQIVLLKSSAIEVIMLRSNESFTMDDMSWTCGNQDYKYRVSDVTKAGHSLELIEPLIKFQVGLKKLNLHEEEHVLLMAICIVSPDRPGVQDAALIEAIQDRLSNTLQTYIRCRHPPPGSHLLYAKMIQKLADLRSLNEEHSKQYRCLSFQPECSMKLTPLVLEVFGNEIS

Potency, active:
COc1ccc(N2CCCC2)c(NC(=O)c2ccc([N+](=O)[O-])o2)c1 79.4 µM
CCOC(=O)COc1ccc(Br)cc1/C=C\c1[nH]c(=O)[nH]c(=O)c1[N+](=O)[O-] 22.4 µM
COC(=O)N1C(=O)[C@](CC(C)C)(c2ccccc2)N1C(=O)OC 79.4 µM
COc1ccccc1C(=O)/C=C/c1ccc(N2CCCCC2)c([N+](=O)[O-])c1 79.4 µM
O=S(=O)(c1ccc(=S)[nH]c1)N1CCN(Cc2ccccc2)CC1 79.4 µM
COc1ccc(CCNC(=O)/C=C/c2ccco2)cc1 89.1 µM
N#C/C(=C/c1ccc(F)cc1)C(N)=S 89.1 µM

Potency, inconclusive:
Clc1cccc(-c2ccc(C=Nc3ccc(N4CCOCC4)cc3)o2)c1Cl 25.1 µM [inhibitor, single point]
O=C(CSc1cn(CCNC(=O)c2ccc3ccccc3c2)c2ccccc12)NCc1ccco1 50.1 µM [inhibitor, partial curve, poor fit]
Cc1cccc(/C=C/c2onc(C)c2[N+](=O)[O-])n1 50.1 µM [inhibitor, partial curve, poor fit]
Cc1noc(C)c1CSCC(=O)Nc1cc(C(F)(F)F)ccc1N1CCOCC1 89.1 µM [inhibitor, single point]
Cc1cccc(NC2=C(NC(=O)c3ccccc3)C(=O)c3ccccc3C2=O)c1 100 µM [inhibitor, single point]
COc1ccc(Cl)cc1NC(=O)CCCS(=O)(=O)c1nc(-c2ccc(OC)c(OC)c2)cc(C(F)(F)F)n1 7.94 µM [inhibitor, full curve, poor fit]
CS(=O)(=O)Nc1cccc(-c2nc(-n3ccnc3)c3ccccc3n2)c1 56.2 µM [inhibitor, partial curve, poor fit]
Nc1ccccc1-c1n[nH]c(=S)s1 89.1 µM [inhibitor, single point]
Cc1ccc2nc(SCC(=O)N(C)C3CCS(=O)(=O)C3)[nH]c2c1 (stereo unspecified) 100 µM [inhibitor, partial curve, poor fit]
CCOC(=O)N1CCC(Nc2ncnc3c2cnn3-c2ccc(Cl)cc2)CC1 79.4 µM [inhibitor, single point]
O=S(=O)(O)c1cc(Cl)cc(N=Nc2ccc(O)cc2O)c1O 89.1 µM [inhibitor, single point]
CN(c1ccccc1)S(=O)(=O)c1ccc(NC(=O)C2CCCCC2C(=O)O)cc1 (stereo unspecified) 100 µM [inhibitor, partial curve, poor fit]
Cc1cc(C)nc(SCc2cc(=O)c(OC(=O)c3ccc(S(=O)(=O)N(C)C)cc3)co2)n1 89.1 µM [inhibitor, single point]
Cc1c(Nc2scc(-c3ccccc3)[n+]2-c2ccccc2)c(=O)n(-c2ccccc2)n1C 79.4 µM [inhibitor, partial curve, poor fit]
O=C(NCc1ccco1)O[C@@H]1C(=O)c2cc(Br)ccc2O[C@H]1c1ccc2c(c1)OCO2 44.7 µM [inhibitor, partial curve]
CCN1/C(=C/C(C)=O)Sc2ccc(OC)cc21 50.1 µM [inhibitor, partial curve]
CCOC(=O)c1cc2c(=O)n3ccccc3nc2n(Cc2ccco2)c1=NC(=O)c1ccc(OC)cc1OC 89.1 µM [inhibitor, single point]
Cc1nc2ccc(NC(=O)CCS(=O)(=O)c3ccc(Cl)cc3)cc2s1 56.2 µM [inhibitor, single point]
O=C(NCc1ccc(F)cc1)c1ccc(N2CCc3ccccc32)c([N+](=O)[O-])c1 89.1 µM [inhibitor, single point]
CCOC(=O)C1CCN(C(=O)CC(C)c2ccccc2)CC1 (stereo unspecified) 15.8 µM [inhibitor, single point]
COc1cccc(CNS(=O)(=O)c2ccccc2Br)c1OC 89.1 µM [inhibitor, partial curve]
Cc1nc(N=Nc2ccc(S(=O)(=O)O)cc2S(=O)(=O)O)c(COP(=O)(O)O)c(C=O)c1O 25.1 µM [inhibitor, full curve]
CCC(CO)Oc1cc(NCc2ccccc2)c2ncn(C(C)C)c2c1 (stereo unspecified) 79.4 µM [inhibitor, partial curve, poor fit]
N#Cc1cc2c(nc1SCC(=O)N1CCCCC1)CCCCC2 35.5 µM [inhibitor, partial curve, poor fit]
Cc1cccc(C)c1NC(=O)C(c1ccccc1)N1CCC1=O (stereo unspecified) 17.8 µM [inhibitor, single point]
CN=c1scc(-c2cccs2)n1/N=C/c1ccc(O)c(O)c1O 89.1 µM [inhibitor, single point]
O=C(Oc1ccc(Br)cc1C(=S)N1CCOCC1)c1ccc([N+](=O)[O-])cc1[N+](=O)[O-] 56.2 µM [inhibitor, partial curve, poor fit]

Reprinted at random: 2 records from the list, in no set order.
Potency, inconclusive:
CN=c1scc(-c2cccs2)n1/N=C/c1ccc(O)c(O)c1O 89.1 µM [inhibitor, single point]
Cc1cc(C)nc(SCc2cc(=O)c(OC(=O)c3ccc(S(=O)(=O)N(C)C)cc3)co2)n1 89.1 µM [inhibitor, single point]

Following part:

Max response, negative = inhibition, inactive:
Cc1ccc(OCc2nnc(SCC(=O)N3C(C)CCCC3C)o2)cc1 (stereo unspecified) -1.01%
C=CCNc1nc(N)c(C(=O)Nc2cc(C)on2)s1 1.15%
CC(C)c1ccc(S(=O)(=O)c2cnc(SCC(=O)Nc3ccc(F)cc3F)nc2N)cc1 5.88%
Cc1ccc2[nH]c(=O)c(C(c3nnnn3Cc3ccccc3)N3CCc4ccccc43)cc2c1 (stereo unspecified) 34%
CCC1(C)Cc2c(sc(NC(=S)NC(=O)c3ccccc3)c2C#N)CO1 (stereo unspecified) -16.3%
CCCCC[C@H](CC(=O)NO)C(=O)N[C@H](C(=O)N1CCC[C@H]1CO)C(C)C -2.09%
COc1cc(-c2nn3c(-c4cccnc4)nnc3s2)cc(OC)c1OC 0.93%
